For data set [1] the following is noted: ratio between cytotoxic effect and antibacterial effect.
The nature of data set [2]: peptide made by a vendor (Fmoc solid-phase peptide synthesis; cellulose support (SPOT array)). As to conditions: whole synthesis, MALDI-ToF, scale of the general procedure 80 μg (SPOT array).

For part of these data: Some peptides are written in HELM: one residue between dots, names in brackets for other building blocks, links after the first $. No end group written: not given here.

As to RYGYGGYGGGRYGGGYGSGR-NH2 [Fragment 2], in data set [1], the selectivity index is reported as 0.5.

Regarding RQYMRQIEQALRYGYRISRR-NH2 [Guavanin 2], the selectivity index in data set [1] is 23.93.

As for “PEPTIDE1{R.Q.Y.M.R.Q.I.E.Q.A.L.R.Y.G.Y.R.I.S.R.R.[am]}$$$$V2.0”, the final ms purity in data set [2] is recorded as >95%.

(Values after US20210183469A9 (priority 2018, published 2021).)
